± gives the standard deviation of the averaged measurements. Values are relative to the signal before dosing, not to a vehicle control; the signal also falls without drug.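 Fibroblast labels denote human fibroblasts, mainly primary ones from uterus (C12385, HUF), lung (H6013), bone (Hs27A), adrenal (HADF) and skin (WS1), plus mammary HMF and breast cancer-associated Hs343T. Cancer cells are basal-like or mesenchymal-like triple-negative breast cancer lines. A hit is a response shift exceeding 3x replicate standard deviation. The tissue of the other fibroblasts is not given here.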
System: MDAMB436
Assay: relative JC-1 red fluorescence (viability) vs pre-drug, coculture with fibroblast (fraction); higher = more viable cancer cells
Method: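 JC-1 labelled TNBC cells cocultured 1:1 (1,500 cells each) with CellTrace Violet stained primary or stromal fibroblasts in 384-well plates in FluoroBrite medium, treated with one of 42 anticancer drugs at 0.1, 1, 10 or 100 uM. JC-1 red fluorescence (mitochondrial integrity in cancer cells only) was read by plate reader every 8 h for 72 h. Values are normalised to each well's pre-drug value. The stock of one drug was tenfold lower, so its dose labels may be too high.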

O=NN(CCCl)C(=O)NC1CCCCC1 [Lomustine]
relative JC-1 red fluorescence
Settings | 8 h | 16 h | 24 h | 32 h | 40 h | 48 h | 56 h | 64 h | 72 h
0.1 µM, coculture fibroblast: C12385 | 0.7331 ± 0.0037 | 0.694 ± 0.038 | 0.665 ± 0.054 | 0.588 ± 0.069 | 0.548 ± 0.083 | 0.537 ± 0.085 | 0.531 ± 0.087 | 0.527 ± 0.093 | 0.527 ± 0.089
0.1 µM, coculture fibroblast: H6013 | 0.815 ± 0.0047 | 0.795 ± 0.025 | 0.787 ± 0.024 | 0.781 ± 0.052 | 0.773 ± 0.066 | 0.804 ± 0.086 | 0.771 ± 0.099 | 0.753 ± 0.11 | 0.706 ± 0.12
0.1 µM, coculture fibroblast: H6019 | 0.7214 ± 0.0062 | 0.684 ± 0.025 | 0.659 ± 0.046 | 0.593 ± 0.053 | 0.558 ± 0.072 | 0.541 ± 0.068 | 0.507 ± 0.073 | 0.48 ± 0.073 | 0.449 ± 0.076
0.1 µM, coculture fibroblast: H6076 | 0.721 ± 0.011 | 0.679 ± 0.017 | 0.689 ± 0.03 | 0.657 ± 0.04 | 0.664 ± 0.04 | 0.634 ± 0.043 | 0.661 ± 0.05 | 0.649 ± 0.056 | 0.646 ± 0.056
0.1 µM, coculture fibroblast: H6231 | 0.6899 ± 0.0053 | 0.649 ± 0.024 | 0.687 ± 0.051 | 0.596 ± 0.053 | 0.6 ± 0.063 | 0.576 ± 0.075 | 0.569 ± 0.086 | 0.552 ± 0.093 | 0.547 ± 0.098
0.1 µM, coculture fibroblast: HADF | 0.7815 ± 0.0012 | 0.7594 ± 0.0041 | 0.737 ± 0.033 | 0.722 ± 0.054 | 0.736 ± 0.081 | 0.794 ± 0.1 | 0.74 ± 0.1 | 0.752 ± 0.1 | 0.724 ± 0.1
0.1 µM, coculture fibroblast: HCFa | 0.773 ± 0.013 | 0.744 ± 0.044 | 0.718 ± 0.056 | 0.696 ± 0.068 | 0.687 ± 0.076 | 0.707 ± 0.092 | 0.65 ± 0.1 | 0.642 ± 0.11 | 0.592 ± 0.12
0.1 µM, coculture fibroblast: HCPF | 0.761 ± 0.057 | 0.724 ± 0.072 | 0.735 ± 0.084 | 0.662 ± 0.087 | 0.651 ± 0.087 | 0.619 ± 0.088 | 0.606 ± 0.087 | 0.589 ± 0.092 | 0.581 ± 0.096
0.1 µM, coculture fibroblast: HHSteC | 0.834 ± 0.043 | 0.83 ± 0.043 | 0.822 ± 0.048 | 0.798 ± 0.041 | 0.7908 ± 0.0079 | 0.785 ± 0.02 | 0.722 ± 0.043 | 0.697 ± 0.066 | 0.641 ± 0.077
0.1 µM, coculture fibroblast: HMF | 0.765 ± 0.014 | 0.7047 ± 0.0016 | 0.68 ± 0.025 | 0.629 ± 0.026 | 0.612 ± 0.037 | 0.58 ± 0.047 | 0.59 ± 0.045 | 0.566 ± 0.053 | 0.564 ± 0.063
0.1 µM, coculture fibroblast: HPFa | 0.845 ± 0.0086 | 0.801 ± 0.028 | 0.78 ± 0.036 | 0.739 ± 0.027 | 0.736 ± 0.041 | 0.739 ± 0.047 | 0.665 ± 0.056 | 0.637 ± 0.057 | 0.562 ± 0.073
0.1 µM, coculture fibroblast: HUF | 0.809 ± 0.022 | 0.723 ± 0.0079 | 0.694 ± 0.013 | 0.614 ± 0.0099 | 0.572 ± 0.0076 | 0.5467 ± 0.0015 | 0.525 ± 0.0063 | 0.5131 ± 0.0013 | 0.5069 ± 0.0032
0.1 µM, coculture fibroblast: Hs5 | 0.771 ± 0.015 | 0.727 ± 0.035 | 0.717 ± 0.049 | 0.663 ± 0.061 | 0.656 ± 0.07 | 0.621 ± 0.078 | 0.644 ± 0.092 | 0.616 ± 0.1 | 0.606 ± 0.1
0.1 µM, coculture fibroblast: Hs27A | 0.7897 ± 0.0038 | 0.749 ± 0.018 | 0.743 ± 0.026 | 0.736 ± 0.032 | 0.719 ± 0.045 | 0.805 ± 0.062 | 0.698 ± 0.062 | 0.685 ± 0.069 | 0.607 ± 0.072
0.1 µM, coculture fibroblast: Hs343T | 0.772 ± 0.056 | 0.71 ± 0.072 | 0.693 ± 0.081 | 0.648 ± 0.081 | 0.635 ± 0.066 | 0.604 ± 0.074 | 0.599 ± 0.077 | 0.592 ± 0.062 | 0.582 ± 0.06
0.1 µM, coculture fibroblast: WS1 | 0.7511 ± 0.0047 | 0.692 ± 0.0093 | 0.659 ± 0.018 | 0.568 ± 0.0026 | 0.536 ± 0.0084 | 0.513 ± 0.0075 | 0.4941 ± 0.00092 | 0.4724 ± 0.003 | 0.4707 ± 0.00054
1 µM, coculture fibroblast: C12385 | 0.8188 ± 0.0038 | 0.687 ± 0.012 | 0.6622 ± 0.0013 | 0.5755 ± 0.0015 | 0.5216 ± 0.0019 | 0.492 ± 0.0074 | 0.465 ± 0.0087 | 0.444 ± 0.016 | 0.438 ± 0.015
1 µM, coculture fibroblast: H6013 | 0.838 ± 0.044 | 0.736 ± 0.055 | 0.71 ± 0.058 | 0.695 ± 0.053 | 0.675 ± 0.046 | 0.679 ± 0.037 | 0.641 ± 0.036 | 0.626 ± 0.029 | 0.576 ± 0.028
1 µM, coculture fibroblast: H6019 | 0.7337 ± 0.0046 | 0.628 ± 0.014 | 0.609 ± 0.0069 | 0.5389 ± 0.0051 | 0.4921 ± 0.0022 | 0.4731 ± 0.0035 | 0.4419 ± 0.00081 | 0.4169 ± 0.00052 | 0.395 ± 0.0056
1 µM, coculture fibroblast: H6076 | 0.826 ± 0.15 | 0.747 ± 0.12 | 0.7 ± 0.081 | 0.65 ± 0.062 | 0.6 ± 0.046 | 0.568 ± 0.023 | 0.5471 ± 0.0012 | 0.5291 ± 0.0044 | 0.515 ± 0.019
1 µM, coculture fibroblast: H6231 | 0.754 ± 0.032 | 0.653 ± 0.034 | 0.623 ± 0.03 | 0.556 ± 0.016 | 0.522 ± 0.015 | 0.487 ± 0.011 | 0.4749 ± 0.0036 | 0.4361 ± 0.0036 | 0.42025 ± 0.00015
1 µM, coculture fibroblast: HADF | 0.8123 ± 0.0075 | 0.6841 ± 0.0049 | 0.6291 ± 0.0061 | 0.582 ± 0.0065 | 0.55052 ± 0.0004 | 0.548 ± 0.013 | 0.498 ± 0.0088 | 0.485 ± 0.016 | 0.451 ± 0.018
1 µM, coculture fibroblast: HCFa | 0.787 ± 0.021 | 0.696 ± 0.038 | 0.657 ± 0.035 | 0.616 ± 0.024 | 0.588 ± 0.019 | 0.5918 ± 0.0052 | 0.5321 ± 0.0021 | 0.5183 ± 0.0039 | 0.466 ± 0.0014
1 µM, coculture fibroblast: HCPF | 0.805 ± 0.029 | 0.719 ± 0.026 | 0.69267 ± 0.00017 | 0.629 ± 0.011 | 0.602 ± 0.017 | 0.563 ± 0.04 | 0.542 ± 0.04 | 0.52 ± 0.047 | 0.501 ± 0.051
1 µM, coculture fibroblast: HHSteC | 0.8453 ± 0.0052 | 0.7906 ± 0.0025 | 0.758 ± 0.024 | 0.727 ± 0.026 | 0.703 ± 0.034 | 0.715 ± 0.043 | 0.653 ± 0.042 | 0.622 ± 0.038 | 0.571 ± 0.043
1 µM, coculture fibroblast: HMF | 0.808 ± 0.066 | 0.704 ± 0.065 | 0.662 ± 0.053 | 0.616 ± 0.061 | 0.598 ± 0.068 | 0.561 ± 0.064 | 0.546 ± 0.057 | 0.529 ± 0.057 | 0.507 ± 0.049
1 µM, coculture fibroblast: HPFa | 0.862 ± 0.01 | 0.788 ± 0.016 | 0.743 ± 0.013 | 0.7034 ± 0.0031 | 0.688 ± 0.0086 | 0.696 ± 0.0075 | 0.607 ± 0.0046 | 0.581 ± 0.0065 | 0.5004 ± 0.0026
1 µM, coculture fibroblast: HUF | 0.851 ± 0.009 | 0.7654 ± 0.0062 | 0.7595 ± 0.0042 | 0.691 ± 0.008 | 0.642 ± 0.0095 | 0.615 ± 0.015 | 0.589 ± 0.028 | 0.573 ± 0.027 | 0.573 ± 0.032
1 µM, coculture fibroblast: Hs5 | 0.817 ± 0.018 | 0.725 ± 0.022 | 0.697 ± 0.013 | 0.643 ± 0.021 | 0.618 ± 0.023 | 0.577 ± 0.019 | 0.569 ± 0.018 | 0.536 ± 0.012 | 0.516 ± 0.0067
1 µM, coculture fibroblast: Hs27A | 0.813 ± 0.023 | 0.742 ± 0.041 | 0.696 ± 0.028 | 0.657 ± 0.032 | 0.633 ± 0.025 | 0.682 ± 0.024 | 0.592 ± 0.034 | 0.576 ± 0.023 | 0.507 ± 0.023
1 µM, coculture fibroblast: Hs343T | 0.787 ± 0.046 | 0.676 ± 0.0072 | 0.629 ± 0.028 | 0.585 ± 0.043 | 0.56 ± 0.054 | 0.516 ± 0.063 | 0.501 ± 0.067 | 0.49 ± 0.067 | 0.48 ± 0.06
1 µM, coculture fibroblast: WS1 | 0.7918 ± 0.003 | 0.675 ± 0.0029 | 0.651 ± 0.018 | 0.582 ± 0.028 | 0.537 ± 0.018 | 0.511 ± 0.023 | 0.49 ± 0.02 | 0.456 ± 0.018 | 0.447 ± 0.019
